Assay results taken from PMC11640973, “The Detection of Toxic Amyloid-β Fibril Fragments Through a Surface Plasmon Resonance Immunoassay” (International Journal of Molecular Sciences, 2024).

Experiments:
[1] = Thioflavin-T (ThT) fluorescence assay of fibrillar content; format: physicochemical; details: 5 µM Aβ42 with 20 µM ThT
[2] = Transmission electron microscopy (TEM) of Aβ42 species; format: physicochemical

Q: Which results are given for Amyloid-β1–42 [Aβ42]?
A: ThT fluorescence signal ([1]; 6 h at 37 °C): increase in the ThT fluorescence signal; ThT signal ([1]; 5 days at 37 °C then freeze-and-thaw cycle): remained unchanged; ThT signal ([1]; 5 days at 37 °C): clear plateau in the ThT signal; ThT signal ([1]; t = 0, excitation 448 nm, emission 485 nm): did not show any signal; TEM morphology ([2]; 6 h at 37 °C, 50 µM in PBS): small fibrils, sometimes grouped in larger fibrillar aggregates; TEM morphology ([2]; 5 days at 37 °C, 50 µM in PBS): larger suprafibrillar macroaggregates; TEM morphology ([2]; 5 days at 37 °C, then one freeze-and-thaw cycle): clear fragmentation of these macroaggregates; TEM morphology ([2]; t = 0): no visible Aβ42 aggregates were detected by TEM
